# Test results as given in PMC11099923.
# Amino acid sequences for entries named in this document (tags omitted). Residues count along the entry.
# UniProt P36544, residues 231-495: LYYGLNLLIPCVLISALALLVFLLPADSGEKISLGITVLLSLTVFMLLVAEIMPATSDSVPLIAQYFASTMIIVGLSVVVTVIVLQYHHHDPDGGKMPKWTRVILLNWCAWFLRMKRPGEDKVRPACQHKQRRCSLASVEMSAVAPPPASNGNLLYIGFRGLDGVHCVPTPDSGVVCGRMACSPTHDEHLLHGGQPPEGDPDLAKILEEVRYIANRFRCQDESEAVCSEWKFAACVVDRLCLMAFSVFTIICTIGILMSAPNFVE
# UniProt Q9NRD5, residues 19-110: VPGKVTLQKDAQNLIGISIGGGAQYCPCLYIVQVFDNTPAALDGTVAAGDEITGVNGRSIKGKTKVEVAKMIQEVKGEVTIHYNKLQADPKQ
# No constants are given. Whether binding was seen depends on the method and setting. Some binding calls cover weakened binding; strength is not graded here.
# Columns and labels:
# [1] = biological target: human α7nAChR transmembrane and intracellular domains (TMD+ICD) (human) (UniProt P36544); assay: paramagnetic relaxation enhancement (PRE) NMR; 1H-15N TROSY-HSQC of isotope-labeled α7nAChR TMD+ICD with PICK1 PDZ carrying MTSL at C44 and C46; paramagnetic (I) against diamagnetic (I0, 2.5 mM ascorbic acid); LDAO micelles; both purified
# [2] = biological target: human α7nAChR transmembrane and intracellular domains (TMD+ICD) (human) (UniProt P36544); assay: NMR titration; 1H-15N TROSY-HSQC chemical shift perturbation of 15N-labeled α7nAChR TMD+ICD (150-200 μM) with unlabeled PICK1 PDZ (0, 65, 210 μM); 0.5-1% LDAO, 25 mM NaCl, 5 mM sodium acetate pH 5; 45°C; both purified
# [3] = biological target: human α7nAChR transmembrane and intracellular domains (TMD+ICD) (human) (UniProt P36544); assay: saturation transfer difference (STD) NMR; 2D 1H-15N TROSY-HSQC of 15N-labeled α7nAChR TMD+ICD with unlabeled PICK1 PDZ, saturation of the PICK1 I33 1HN peak (~11.6 ppm) for 0.5 s, off-resonance at 20 ppm; LDAO micelles; both purified
# [4] = biological target: PDZ domain of human PICK1, tag cleaved with TEV protease (NMR sample) (human) (UniProt Q9NRD5); assay: NMR titration; 1H-15N TROSY-HSQC chemical shift perturbation of 15N-labeled PICK1 PDZ (50-100 μM) without or with unlabeled α7nAChR TMD+ICD (10 μM); 25 mM Tris pH 7.4, 0.02-0.03% LDAO, 125 mM NaCl; 45°C; both purified
substance,measurement,setting,value
PDZ domain of human PICK1 labeled with MTSL at C44 and C46 (from UniProt Q9NRD5 19-110) (domain or fragment),binding,[1],binds
"PDZ domain of human PICK1, tag cleaved with TEV protease (NMR sample) (from UniProt Q9NRD5 19-110) (domain or fragment)",binding,[2],binds
same,binding,[3],binds
human α7nAChR transmembrane and intracellular domains (TMD+ICD) (from UniProt P36544 231-495) (domain or fragment),binding,[4],binds
